In the test the target is Flag-YAP1 (UniProt P46937). The experiment in a line: affinity purification with mass spectrometry; tandem affinity purification of YAP1 complexes from HCCLM3 cells stably expressing Flag-YAP1; mass spectrometric analysis.

Here are results for two molecules from publication PMC12044017, “CDK4/6-mediated phosphorylation of DUB3 promotes YAP1 stability and hepatocellular carcinoma progression” (Cell Death Discovery, 2025).

These are yes or no findings as the source states them, for the method shown. In cells and extracts the contact can be indirect. Here binding means that the protein was enriched with, or labelled near, the bait; the list need not be complete.

As for “EGFR (from UniProt P00533 25-1210) (receptor)”, the binding result is reported as “binds”.

B1: DUB3 (endogenous) (enzyme, UniProt Q6R6M4 1-530)
chain: MEDDSLYLGGEWQFNHFSKLTSSRPDAAFAEIQRTSLPEKSPLSSEARVDLCDDLAPVARQLAPRKKLPLSSRRPAAVGAGLQNMGNTCYENASLQCLTYTPPLANYMLSREHSQTCQRPKCCMLCTMQAHITWALHSPGHVIQPSQALAAGFHRGKQEDAHEFLMFTVDAMKKACLPGHKQVDHHSKDTTLIHQIFGGCWRSQIKCLHCHGISDTFDPYLDIALDIQAAQSVKQALEQLVKPEELNGENAYHCGLCLQRAPASKTLTLHTSAKVLILVLKRFSDVTGNKLAKNVQYPECLDMQPYMSQQNTGPLVYVLYAVLVHAGWSCHDGHYFSYVKAQEGQWYKMDDAKVTACSITSVLSQQAYVLFYIQKSEWERHSESVSRGREPRALGAEDTDRRATQGELKRDHPCLQAPELDERLVERATQESTLDHWKFPQEQNKTKPEFNVRKVEGTLPPNVLVIHQSKYKCGMKNHHPEQQSSLLNLSSTTRTDQESVNTGTLASLQGRTRRSKGKNKHSKRALLVCQ
Take B1: the binding entry is on record as “binds”.
